Values from PubChem BioAssay AID743121 (NCATS, 2013)
This is an unselected part of about 26,000 deposited reagents. 167 of all reagents (0.63%) were called active. 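Calls are per gene from RSA p-values that are not deposited; an individual active-marked siRNA can sensitise only weakly.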 Reagents against one gene are numbered here.

Test: 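Knock-downs that sensitise breast cancer cells to camptothecin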 (primary screen)
System: MDA-MB-231 cells, a human breast cancer line
Reagents: single siRNA against human genes, 20 nM siRNA (0.8 pmol per well)
Timing: 120 h (drug added 48 h after transfection, read 72 h later)
Treatment: camptothecin 20 nM (about EC30) for 72 h; vehicle 0.1% DMSO in parallel plates
Read-out: 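Cell viability by ATP luminescence (CellTiter-Glo) as % of non-targeting siRNA wells, and the log2 ratio of viability without drug over viability with camptothecin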
Scale: log2 vehicle/camptothecin viability: higher = stronger sensitisation to camptothecin; viability with camptothecin and viability without drug: higher = more viable cells
Call rule: 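Each gene scored by redundant siRNA activity (RSA) over its individual siRNA ratios; a gene is called active at p < 0.001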

Gene | siRNA no. | log2 vehicle/camptothecin viability | viability with camptothecin (% of control) | viability without drug (% of control) | outcome
KTI12 | 1 | -0.0348 | 96.7 | 94.4 | inactive
KTI12 | 2 | -0.718 | 80.9 | 49.2 | inactive
KTI12 | 3 | 0.0231 | 91.1 | 92.5 | inactive
CASP7 | 1 | 0.2 | 82.5 | 94.8 | inactive
CASP7 | 2 | 0.0829 | 77.9 | 82.5 | inactive
CASP7 | 3 | -0.118 | 94 | 86.6 | inactive
PEX6 | 1 | -0.164 | 68.8 | 61.4 | inactive
PEX6 | 2 | -0.218 | 135 | 116 | inactive
PEX6 | 3 | -0.438 | 44.7 | 33 | inactive
PEX6 | 4 | -0.475 | 89.4 | 64.3 | inactive
WDSUB1 | 1 | 0.121 | 106 | 115 | inactive
WDSUB1 | 2 | 0.0471 | 75.6 | 78.1 | inactive
WDSUB1 | 3 | 0.176 | 40.4 | 45.6 | inactive
WDSUB1 | 4 | -0.0429 | 106 | 103 | inactive
IL18 | 1 | 0.289 | 69.4 | 84.8 | inactive
IL18 | 2 | -0.322 | 85.3 | 68.2 | inactive
IL18 | 3 | 0.0371 | 91.5 | 93.9 | inactive

Continued, starting with the last 4 of the part before.
Gene | siRNA no. | log2 vehicle/camptothecin viability | viability with camptothecin (% of control) | viability without drug (% of control) | outcome
WDSUB1 | 4 | -0.0429 | 106 | 103 | inactive
IL18 | 1 | 0.289 | 69.4 | 84.8 | inactive
IL18 | 2 | -0.322 | 85.3 | 68.2 | inactive
IL18 | 3 | 0.0371 | 91.5 | 93.9 | inactive
TKT | 1 | -0.0108 | 41.6 | 41.3 | inactive
TKT | 2 | -0.0446 | 50.6 | 49 | inactive
TKT | 3 | -0.0383 | 81 | 78.9 | inactive
CSNK1A1 | 1 | -0.249 | 106 | 88.9 | inactive
CSNK1A1 | 2 | -0.0957 | 123 | 115 | inactive
CSNK1A1 | 3 | -0.278 | 66 | 54.4 | inactive
CSNK1A1 | 4 | 0.303 | 37.9 | 46.7 | inactive
PLSCR1 | 1 | -0.147 | 103 | 92.9 | inactive
PLSCR1 | 2 | -0.272 | 62.4 | 51.7 | inactive
PLSCR1 | 3 | -0.776 | 70 | 40.9 | inactive
PLSCR1 | 4 | 0.00354 | 102 | 102 | inactive
PTPA | 1 | -0.57 | 90 | 60.6 | inactive
PTPA | 2 | -0.385 | 86.6 | 66.3 | inactive
PTPA | 3 | 0.265 | 52.8 | 63.5 | inactive
PTPA | 4 | -0.301 | 88.1 | 71.5 | inactive
PRP4K | 1 | -0.897 | 121 | 65.1 | inactive
PRP4K | 2 | -0.583 | 96.6 | 64.5 | inactive
PRP4K | 3 | -0.531 | 59 | 40.9 | inactive
PRP4K | 4 | -0.513 | 68 | 47.7 | inactive
TOMM22 | 1 | -0.206 | 96.9 | 84 | inactive
TOMM22 | 2 | -0.356 | 110 | 86 | inactive
TOMM22 | 3 | -0.176 | 90.2 | 79.8 | inactive
DEDD | 1 | -0.324 | 91.8 | 73.3 | inactive
DEDD | 2 | 0.246 | 49.7 | 59 | inactive
DEDD | 3 | -0.0402 | 90 | 87.5 | inactive
UCN | 1 | -0.228 | 111 | 95 | inactive
UCN | 2 | -0.139 | 110 | 99.8 | inactive
UCN | 3 | -0.0387 | 46.1 | 44.9 | inactive
UCN | 4 | -0.382 | 38.3 | 29.4 | inactive
